Measured values reported in PubChem BioAssay AID1347423 (Functional Genomics Laboratory (NCATS/FGL), 2020).
The campaign covered roughly 52,000 sequences. About 210 (0.4%) were called active.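 Rule for the calls: active = gene whose silencing raises cell survival under the drug, median off-target-corrected z-score across its silencing RNAs 2 or more; inactive = the rest.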 The list shows a part of the results.

assay: Resistance to Poly (ADP-Ribose) Polymerase inhibitor: Gene Identification via Genome-wide siRNA Screen; details: mouse BRCA2 R2336H ES cells, olaparib, CellTiter-Glo viability; hits give high values
Procedure, shortened: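 Mouse BRCA2 R2336H ES cells were reverse-transfected with siRNA (20 nM final), treated at 48 h with 500 nM olaparib, and read by CellTiter-Glo after 72 h. Scores: MAD-based z per siRNA, median per gene, seed off-target correction.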

Sequence	z-score
GGUGAUACUCAGUUUAAGCTT against Pms2	inactive: -0.346
GGAGUGCGCUUGAAUAUGATT against Lamp1	inactive: 1.03
GGGUGCACUGGCUAAUAUATT against H2-Ea	inactive: -1.19
GGUGCAAACUGAGGUCCUGTT against Ebna1bp2	inactive: -2.58
GGCAGAUGUACUGAUUAAATT against 9930032O22Rik	inactive: 0.0206
GCGUGGUUUCUGAAUACAUTT against Nt5e	inactive: -1.13
GGUAUAUAACCACUCUGUCTT against Dot1l	inactive: -0.0474
GGAAAAUUAAUAGCACAAGTT against Them2	inactive: -0.221
CCAAGCUUGUAGCUCAAGCTT against Gm443	inactive: -0.0243
CGAGAUCAAACCUGGCUUATT against Adarb1	inactive: -1.8
GCUAAUUUUUUGAUUGCCCTT against 2310043L02Rik	inactive: -0.23
GCGGCUCUUUAAGAUCCAGTT against Fbxw5	inactive: 0.0259
GGUGAUAACAAUGUCCCUUTT against 1110055J05Rik	inactive: -0.69
GGUUUACCCUGCUCAUUUUTT against Fbxl6	inactive: 0.679
GCACACUACAACGUAUCACTT against B930007M17Rik	inactive: 0.0382
GCUCGGACUGACCUUUAUGTT against Cnot7	inactive: -1.91
GGAGAGUGUUACAAAAAUUTT against Rcbtb1	inactive: -2.06
GGAGUUCAUUGUUUGGUUGTT against Nat2	inactive: 0.111
GGUUAUCUUUGGGACUUAATT against Lrmp	inactive: 0.395
UCGCGUCCGCUAGAAUGUUTT against MGC69750	inactive: -1.61
GCCGGAAUCAAGAUUAUCATT against Foxm1	inactive: -0.518
GGUGGACUCGCUGAAGAGUTT against Krt2-1	inactive: 0.407
GGUUCUCCAGUGGUCUGACTT against Rab7l1	inactive: -1.71
CCUUACGUAACUGAACAAATT against 1500010G04Rik	inactive: 0.596
GGAAUAUCUCUUUCAAUGATT against Msn	inactive: 0.339
CCUCAUCAUAUUGAUGAGUTT against Ranbp3	inactive: 0.405
GGACUACAUGCUCACGUUATT against Ccm2	inactive: -0.605

A second format for some results above.
GGCAGAUGUACUGAUUAAATT against 9930032O22Rik
  z-score: inactive: 0.0206
GGACUACAUGCUCACGUUATT against Ccm2
  z-score: inactive: -0.605

Following part.

Sequence	z-score
GGGUAAACUUCAUGAUCCATT against Kif5b	inactive: -0.892
GGUGAUGUACAACUUUUUGTT against Wdr34	inactive: 0.894
GGCUAUGCAAUGGAUCUGATT against Osbpl5	inactive: -1.32
GGAGCUUCUAGAGAAGAUCTT against Leng5	inactive: -2.29
GCAUCAACACCUGUUCUAUTT against Olfr376	inactive: 0.319
GGGAAAAUUCCAGAAUCGCTT against Musk	inactive: 0.606
GCAUACGAUGGGAAUUGUATT against Wdr5b	inactive: -0.462
GGAGAUCGCGUUCCUUAAGTT against Des	inactive: -0.389
GGCUUAAAGGGUUUUCUGATT against Rnf13	inactive: 1.29
CGGCGUGUUUAUUUGCUAUTT against Rab27a	inactive: 0.166
GGAGAUAAAAUUAUUCAGGTT against Erbb2ip	inactive: 0.876
GGACAUCUUUGACAUUAUATT against Tubg2	inactive: 0.452
GGUACAGAAAAUCUCUAUGTT against 4921513E08Rik	inactive: 1.21
GGAAGAGCUGAAACAUUUGTT against E230025N22	inactive: -2.15
GGAAAAGAAGCAAAACUUCTT against Tulp2	inactive: 0.515
GGAAAAGCAGACUUGCACCTT against Npm2	inactive: -1.07
GGAGCUUAGAGGAACGAAUTT against Cyp2j9	inactive: -0.343
CCUAAAAGCAAGGCUGCCGTT against D8Ertd738e	inactive: 1.16
GGCACAGGACUUUUAAUUUTT against Emx2	inactive: 0.294
CGGUUUAGAUCCCAACACUTT against Pitpnb	inactive: -0.467
GGAAAAGCUGGAGGAAGACTT against Tef	inactive: -0.159
GGAAAUCAAAAUCCUGAAGTT against Ulk1	inactive: -0.869
GGGACCCGGAAACAACACATT against Tyrobp	inactive: 0.504
AAAGUCUUUCACUUUCUAUTT against Zfp457	inactive: 1.42
GGCCAUGUGACAUAAAAAATT against Lat	inactive: 0.821
GGGCAUGUGGAUGACUGAUTT against AU067744	inactive: -1.45
GCUAAGUUAAGCUUAAUACTT against Rbl1	inactive: -0.43

Reformatted field by field: entries from further up.
GGUGAUAACAAUGUCCCUUTT against 1110055J05Rik
  z-score: inactive: -0.69
GGGAAAAUUCCAGAAUCGCTT against Musk
  z-score: inactive: 0.606

As a working copy, part of the list above:
Sequence	z-score
GGAAAAGAAGCAAAACUUCTT against Tulp2	inactive: 0.515
GGAAAAGCAGACUUGCACCTT against Npm2	inactive: -1.07
GGAGCUUAGAGGAACGAAUTT against Cyp2j9	inactive: -0.343

The results go on.

Sequence	z-score
GGUCAAUUAUGAAGCACCUTT against Pabpc4	inactive: -0.381
GCAACAUUGGAUGUACUCATT against Hdac10	inactive: 4.01
GGAAGAAGACUCAGAAAGUTT against Prkag2	inactive: -0.116
GCAGAUUGUGCAGCUAGCATT against Pax4	inactive: 1.46
GGCCUCUGUGGUGUUUAACTT against Omp	inactive: -1.51
GCAGGAUUGCGUCCAUAUCTT against Mbd1	inactive: -0.404
GCUCUGGUUGCCAGUUAUGTT against LOC234374	inactive: 0.442
CCUACUGGAGUCUCCUCUUTT against C030022K24Rik	inactive: -2.81
GGUACAAGGUCAUCAUGAGTT against Olfr1341	inactive: -0.695
GCUCUUGAAAUUUCACUCUTT against Ide	inactive: 0.986
GGAAGUUGAGGCUUUGAAGTT against Bnip3l	inactive: 1.36
GCUUACUAAGGUGAUAAUGTT against Il17d	inactive: 0.427
GGGCCCUUAGAAAAUGUGUTT against 2810038K19Rik	inactive: -0.463
GGGAUGACUUGGAGUCUCUTT against Csnk1d	inactive: -0.832
GGAAAUCAGCUGAAUUACUTT against Dicer1	inactive: -0.73
CCAUCACCGAAGUAAAAAATT against 1700129I15Rik	inactive: 0.492
GGAUACAAGCCUUUUAACCTT against Sri	inactive: 0.749
UCACAGUCAUCAUUGUUUCTT against Olfr825	inactive: -0.312
GGUGACCUAGAACCUACAGTT against Gtlf3a	inactive: -1.72
GGCAGAUUUAGGGAAAUAATT against 1700009P17Rik	inactive: -2
GGCUCUGAGAUUCGACUAGTT against P4hb	inactive: 0.386
GGUAAACUCUUGAACAGUATT against Rai1	inactive: -1.4
GGUAUUACGUCAAAUGCCATT against Sec24a	inactive: -0.0731
CUAGAUGCACAGAAUAGCATT against Prm1	inactive: 0.203
GGAGAAUGACAUCUUGAGCTT against 9030221A05Rik	inactive: 0.0836
CCAGCUAUCUCAAAAUGAGTT against Sim1	inactive: 1.17
GGAACAAAGAGUUUAAGGATT against Olfr1415	inactive: 1.08

Sequence	z-score
GGGAACAGGAGAAAACGGATT against Bnipl	inactive: 1.18
GGUUUGGUGUACUUUUCAUTT against Akr1c6	inactive: -0.0478
GCUGGAGAUCAUCCUUCAGTT against Rph3al	inactive: 0.172
CCUAUUGUCUGAUAGCCCUTT against Ms4a7	inactive: -0.221
GGGUCAAAGGAAUAAAACATT against Slc22a5	inactive: -0.0966
GGCUGUAUGGGCGAAUAACTT against Plxnd1	inactive: -0.595
GGUACUACUUAGUUUUACUTT against Creg	inactive: 1.61
GGAGCAGAUUGCAUUUGAGTT against AW548124	inactive: 0.281
CAGCUGAGAUUGAUGGCCATT against Olfr313	inactive: -2.2
GCCGUUUAAAACUUGCUAUTT against Trpc6	inactive: -0.117
GCAAGAGUCUUGGCCCUCATT against BC023055	inactive: -0.324
GGAAGAUUUCUUCAAACGCTT against Lhx4	inactive: 1.6
GGGAAUUUGUGAGCUAGAATT against 2810452K22Rik	inactive: -2.95
GGCUUUCGCUGGGCAAAAUTT against Uts2	inactive: -2.24
GGAACAAAAAUGUUGACCATT against 2610009I02Rik	inactive: -0.0974
GGUUUUGGACUUGAAUAACTT against Hectd2	inactive: 0.446
GGAGAUCCUGGAGAACUCUTT against Jph2	inactive: -0.211
GCAGUUGGCAUAUUUUAUGTT against Olfr1033	inactive: -0.248
GGCUCAUCUGACCAACCAGTT against Pabpc4	inactive: 1.36
GGAGGCAGAGCUGUCCAAATT against Timm13a	inactive: -1.11
GGGAUGUGAAAUGCACCUUTT against 2310015N21Rik	inactive: -1.94
GGGUGUAGAAAAGAAGAAATT against A530088I07Rik	inactive: -1.28
GGGCACAGGCAACAUGCUUTT against 9430062J17Rik	inactive: 1.02
GACUGGAGAACAGCAGUUGTT against Amh	inactive: -0.429
